# In PubChem BioAssay AID540256 (National Center for Advancing Translational Sciences (NCATS), 2011):
# Screen size: about 300,000 compounds; about 3,700 (1.2%) were called active. The shares of active, inactive and inconclusive entries below differ from those in the screen. Calls follow the shape of the full dose curve; tested in HEK293 cells. A potency beside an inconclusive call is a rough fit, not a confirmed value.
# Assay: qHTS for Inhibitors of binding or entry into cells for Lassa Virus; also: nearly all actives have a fitted effect of over 50% in size
# Conditions: Lassa virus pseudotype entry inhibition, cell reporter; series mostly up to 37.9 µM
# Potency is read from the fitted curve at half-maximal effect.
row,SMILES,Potency
1,COc1ccc(C)cc1-n1c(-c2ccc(Cl)cc2)cc2c1CC(C)(C)CC2=O,inactive
2,c1cc(-c2nnc(-c3ccncc3)o2)ccn1,inactive
3,COc1ccc(CCNC(=S)N2CCN(S(=O)(=O)c3ccc(Cl)cc3)CC2)cc1,inactive
4,CCC(Sc1nc(C)cc(=O)[nH]1)C(=O)Nc1nc2c(s1)CCCC2 (stereo unspecified),inactive
5,CCC1Sc2ccccc2N(CC(=O)NCc2ccc(C)cc2)C1=O (stereo unspecified),"inconclusive: 3.55 µM [activator, single point]"
6,COC(=O)c1ccc(C(=O)OC)c(NC(=S)N2CC(C)CC(C)C2)c1 (stereo unspecified),"inconclusive: 20.6 µM [inhibitor, single point]"
7,Brc1ccc2ncc3ccccc3c2c1,"inconclusive: 35.5 µM [activator, partial curve, poor fit]"
8,CC1CN(C(=O)C(C)Sc2nc3ccccc3s2)CC(C)O1 (stereo unspecified),"inconclusive: 7.94 µM [inhibitor, partial curve, poor fit]"
9,CCCNc1c(F)c(F)c2c(C)c3ccccc3nc2c1F,"inconclusive: 10 µM [activator, partial curve]"
10,C#CCOC(=O)CCCNc1ccc([N+](=O)[O-])cc1[N+](=O)[O-],inactive
11,O=C(CN(c1ccccc1)S(=O)(=O)c1ccccc1)NCCSc1nc2ccccc2s1,inactive
12,O=c1cc(-c2ccc(C3CCCCC3)cc2)[nH][nH]1,inactive
13,COc1cccc(CN2C(=O)CN(C3CCCCC3)C(=O)C2c2ccc(OC(C)C)c(OC)c2)c1 (stereo unspecified),"inconclusive: 1.58 µM [inhibitor, partial curve, poor fit]"
14,CCCCCCCCC(=O)NNC(=O)c1c(O)c2ccccc2n(CC)c1=O,"inconclusive: 35.5 µM [inhibitor, single point]"
15,C=CCSc1nc2c(cnn2-c2ccccc2)c(=O)n1N,"inconclusive: 14.1 µM [inhibitor, single point]"
16,Cc1ccc(NC(=O)NC(=S)NC(=O)c2ccccc2)cc1,"inconclusive: 6.31 µM [activator, partial curve, poor fit]"
17,COc1cccc(NC(=O)C(=O)NCCC2CCCCN2S(=O)(=O)c2ccccc2)c1 (stereo unspecified),"inconclusive: 35.5 µM [inhibitor, single point]"
18,CSc1ccc(CNc2ccc(C)c(C)c2)cc1,"inconclusive: 29.1 µM [activator, single point]"
19,Clc1ccc2nc(-c3ccc(Cl)nc3)[nH]c2c1,"inconclusive: 3.16 µM [inhibitor, partial curve, poor fit]"
20,O=c1c2ccccc2ncn1-c1ccc([N+](=O)[O-])cc1Cl,"inconclusive: 0.251 µM [activator, full curve, poor fit]"
21,Cc1ccc([C@H]2C[C@H](O)[C@@H](n3cc(-c4ccc(F)cc4)nn3)CN2CC2CCCCC2)cc1,active: 28.1 µM
22,COc1ccc(CCn2nnnc2C(CC(C)C)N2CCC(C(N)=O)CC2)cc1OC (stereo unspecified),inactive
23,O=C(OCc1ccccc1Cl)c1cccnc1Cl,inactive
24,COc1ccccc1OCCNC(=O)c1ccc(C)o1,"inconclusive: 8.91 µM [activator, partial curve, poor fit]"

# 6 of the compounds above, with bars between the fields.
row | SMILES | Potency
2 | c1cc(-c2nnc(-c3ccncc3)o2)ccn1 | inactive
9 | CCCNc1c(F)c(F)c2c(C)c3ccccc3nc2c1F | inconclusive: 10 µM [activator, partial curve]
10 | C#CCOC(=O)CCCNc1ccc([N+](=O)[O-])cc1[N+](=O)[O-] | inactive
12 | O=c1cc(-c2ccc(C3CCCCC3)cc2)[nH][nH]1 | inactive
13 | COc1cccc(CN2C(=O)CN(C3CCCCC3)C(=O)C2c2ccc(OC(C)C)c(OC)c2)c1 (stereo unspecified) | inconclusive: 1.58 µM [inhibitor, partial curve, poor fit]
19 | Clc1ccc2nc(-c3ccc(Cl)nc3)[nH]c2c1 | inconclusive: 3.16 µM [inhibitor, partial curve, poor fit]

# Next part:

row,SMILES,Potency
1,Cc1cc(C)c(NC(=O)Cn2c(=O)oc3cc(S(=O)(=O)N4CCCCCC4)ccc32)c(C)c1,inactive
2,Cc1noc(NS(=O)(=O)c2ccc(NC(=O)c3cccc(S(=O)(=O)Nc4ccccc4F)c3)cc2)c1C,"inconclusive: 35.5 µM [activator, single point]"
3,COc1cccc(N2CC(C(=O)Nc3nnc(SCC(=O)Nc4cc(C)on4)s3)CC2=O)c1 (stereo unspecified),"inconclusive: 3.16 µM [inhibitor, single point]"
4,CCOc1ccc(-c2cc(NC(=O)c3ccccc3)c(C(=O)OC)s2)cc1,"inconclusive: 11.2 µM [activator, partial curve, poor fit]"
5,O=C(CC(=O)c1ccccc1)c1ccccc1,"inconclusive: 10 µM [inhibitor, partial curve, poor fit]"
6,Cc1sc2ncnc(N3CCC(C(=O)NNC(=O)COc4cccc(C(F)(F)F)c4)CC3)c2c1C,inactive
7,O=C(Nc1ccccc1)c1cccc(N2CCCC2=O)c1,"inconclusive: 0.0891 µM [activator, full curve, poor fit]"
8,O=C(NCc1ccccc1)c1ccc(NC(=O)C2CCCO2)cc1 (stereo unspecified),inactive
9,O=c1[nH]c(C2CCN(S(=O)(=O)c3ccccc3)CC2)nc2c1nnn2Cc1cccc(Cl)c1,"inconclusive: 35.5 µM [activator, single point]"
10,COc1ccc(CCNC(=O)CCc2cn(Cc3ccccc3Cl)c3ccccc23)c(OC)c1,"inconclusive: 10 µM [inhibitor, partial curve, poor fit]"
11,O=c1c2cc(Br)ccc2[nH]c(=S)n1Cc1ccccc1,"inconclusive: 10 µM [inhibitor, partial curve, poor fit]"
12,COc1ccccc1/C=N/NC1=NCCCCC1,"inconclusive: 18.3 µM [activator, single point]"
13,COc1cccc(C(=O)Nc2ccc3nc(SCC(=O)N(C)c4ccccc4)sc3c2)c1,"inconclusive: 35.5 µM [inhibitor, single point]"
14,COC(=O)[C@H](CC(C)C)NC(=O)N1CCC(C)CC1,"inconclusive: 14.1 µM [activator, partial curve, poor fit]"
15,CC(C)(C)SCCNC(=O)/C=C/c1ccccc1,inactive
16,Cc1ccc(CNC(=O)c2ccc(CSc3nc4ccncc4n3Cc3ccc(C)cc3)cc2)cc1,"inconclusive: 15.8 µM [inhibitor, single point]"
17,O=C(COc1ccc(S(=O)(=O)N2CCc3ccccc32)cc1Cl)NCc1ccccn1,"inconclusive: 25.9 µM [inhibitor, partial curve, poor fit]"
18,Fc1ccc(CN2CCc3nc(N4CCN(c5ccccc5F)CC4)ncc3C2)c(F)c1,inactive
19,COc1ccccc1N(C)S(=O)(=O)c1ccc(C(=O)Nc2nnc(C)s2)cc1,inactive
20,Cc1ccccc1C1C(C#N)=C(N)N(N(C)C)C2=C1C(=O)CC(C)(C)C2 (stereo unspecified),"inconclusive: 11.2 µM [inhibitor, partial curve]"
21,Cc1ccc(Cc2nc3ccccc3nc2SCC(=O)N2CCC(C)CC2)cc1,inactive
22,Cc1cc(C)c(COc2ccc(/C=N/n3c(C)n[nH]c3=S)cc2)c(C)c1,inactive
23,CCN(C(=O)COc1ncnc2ccccc12)C1CCCCC1,"inconclusive: 35.5 µM [inhibitor, single point]"
24,CN(C)c1ccc(C(=O)OCC(=O)c2cccs2)cc1,"inconclusive: 10 µM [inhibitor, partial curve]"

row,SMILES,Potency
1,COc1ccc(NC(=O)CSc2n[nH]c(-c3ccncc3)n2)cc1Cl,"inconclusive: 11.2 µM [inhibitor, single point]"
2,COc1ccc(/C=N/NC(=O)c2ccc3c(c2)OCCO3)cc1[N+](=O)[O-],inactive
3,CN1CCN(c2ccc(NC(=O)c3ccc(C(F)(F)F)cc3)cn2)CC1,"inconclusive: 20 µM [inhibitor, partial curve, poor fit]"
4,Cc1ccc(S(=O)(=O)N(C)c2ccc(C)c([N+](=O)[O-])c2)cc1,"inconclusive: 25.1 µM [inhibitor, partial curve, poor fit]"
5,Cc1ccc(-c2ccc(SCC(=O)NC3CCCC3)nn2)cc1,inactive
6,Cc1ccccc1NC(=O)Cn1cc(S(=O)(=O)c2ccccc2)c(=O)c2ccccc21,inactive
7,COCC(C)n1c(SCc2ccc(OC)c(F)c2)nc2ccccc2c1=O (stereo unspecified),"inconclusive: 3.98 µM [inhibitor, partial curve, poor fit]"
8,O=C(Nc1ccc(S(=O)(=O)N2CCc3ccccc32)cc1)C(F)(F)F,inactive
9,CCOc1ccc(Nc2cc(C)nc3nncn23)cc1,inactive
10,CC1=C/C(=N\NC(=O)c2cccs2)CC(C)(C)C1,inactive
11,N/N=C/C(=N\Nc1ccc(Cl)cc1)C(=O)c1ccncc1,"inconclusive: 14.1 µM [inhibitor, partial curve, poor fit]"
12,CCOc1ccc(C2C(C(=O)Nc3ccccc3)=C(C)Nc3nc(-c4ccccc4Cl)nn32)cc1OC (stereo unspecified),"inconclusive: 3.98 µM [inhibitor, partial curve, poor fit]"
13,Cc1ccc(-c2nn(-c3cccc(F)c3)cc2CNCc2cccnc2)o1,"inconclusive: 12.6 µM [inhibitor, single point]"
14,Cc1ccc(-n2cc(CNCCn3nc(C)cc3C)c(-c3ccc(F)cc3)n2)cc1,"inconclusive: 31.6 µM [inhibitor, single point]"
15,COc1ccc2nc(C)cc(C(=O)O)c2c1,inactive
16,O=C(Nc1nc(-c2cccnc2)cs1)c1ccc(S(=O)(=O)N2CCOCC2)cc1,inactive
17,Cc1ccccc1NC(=O)C(=O)NCC(c1ccc2c(c1)OCO2)N1CCN(c2ccccc2)CC1 (stereo unspecified),active: 10 µM
18,Cc1ccc(Cl)cc1N1CCN(c2ncnc3c2nc2n3CCCC2)CC1,"inconclusive: 4.47 µM [inhibitor, single point]"
19,CC1(C)Oc2ccc3ccc(=O)oc3c2-c2cn[nH]c21,"inconclusive: 1.26 µM [activator, single point]"
20,COc1ccccc1-c1nnc2sc(COc3ccc(Cl)cc3)nn12,"inconclusive: 35.5 µM [inhibitor, single point]"
21,CCOC(=O)c1c(C)[nH]c2c1cc(O)c1ccccc12,inactive
22,COc1ccc(-n2c(C)cc(C(=O)Cn3c(NCCO)nc4ccccc43)c2C)cc1,"inconclusive: 29.1 µM [inhibitor, single point]"
23,Cc1ccc2cc(CN(Cc3ccc4c(c3)OCO4)Cc3nnnn3Cc3ccco3)c(=O)[nH]c2c1,"inconclusive: 14.1 µM [inhibitor, partial curve, poor fit]"
